No constants are given. Whether binding was seen depends on the method and setting. Binding seen in cells or lysates may run through a third protein. Binding can be weak; no strength is given.

Chains of the proteins cited; added tags and fusions are not shown. Lines headed by an entry give the natural chain unless they say otherwise; changes in a name come on top.
UniProt O15264: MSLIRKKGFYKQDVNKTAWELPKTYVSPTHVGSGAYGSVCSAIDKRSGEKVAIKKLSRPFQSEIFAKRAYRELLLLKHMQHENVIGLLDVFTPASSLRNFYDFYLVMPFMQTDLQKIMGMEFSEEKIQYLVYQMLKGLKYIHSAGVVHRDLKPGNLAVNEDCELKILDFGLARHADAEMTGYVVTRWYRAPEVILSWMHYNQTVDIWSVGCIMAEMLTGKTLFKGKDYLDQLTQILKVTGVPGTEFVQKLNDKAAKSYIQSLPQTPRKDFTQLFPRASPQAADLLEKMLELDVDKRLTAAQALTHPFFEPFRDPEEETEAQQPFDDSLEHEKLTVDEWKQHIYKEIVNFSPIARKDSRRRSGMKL

This assay concerns the target FLAG-p38δ^act (constitutively active human p38δ, AAV-cTnT expressed) (human) (UniProt O15264). Kind of assay: co-IP; anti-FLAG immunoprecipitates (FLAG-p38γ/δ^act) from heart lysates of TnTp38γ/δ^act mice; immunoblot for GYS1 and GSK3; TnTGFP hearts as control. (In general: Immunoblotting shows a protein as a band on a membrane.)

B1: glycogen synthase 1 (GYS1), cardiac, endogenous (enzyme, UniProt Q9Z1E4 1-738)
chain: MPLSRSLSVSSLPGLEDWEDEFDPENAVLFEVAWEVANKVGGIYTVLQTKAKVTGDEWGDNYYLVGPYTEQGVRTQVELLEPPTPELKRTLDSMNSKGCKVYFGRWLIEGGPLVVLLDVGASAWALERWKGELWDTCNIGVPWYDREANDAVLFGFLTTWFLGEFLAQNEEKPYVVAHFHEWLAGVGLCLCRARRLPVATIFTTHATLLGRYLCAGAVDFYNNLENFNVDKEAGERQIYHRYCMERAAAHCAHVFTTVSQITAIEAQHLLKRKPDIVTPNGLNVKKFSAMHEFQNLHAQSKARIQEFVRGHFYGHLDFNLDKTLYFFIAGRYEFSNKGADVFLEALARLNYLLRVNGSEQTVVAFFIMPARTNNFNVETLKGQAVRKQLWDTANTVKEKFGRKLYESLLVGSLPDMNKMLDKEDFTMMKRAIFATQRQSFPPVCTHNMLDDSSDPILTTIRRIGLFNSSADRVKVIFHPEFLSSTSPLLPVDYEEFVRGCHLGVFPSYYEPWGYTPAECTVMGIPSISTNLSGFGCFMEEHIADPSAYGIYILDRRFRSLDDSCSQLTSFLYSFCQQSRRQRIIQRNRTERLSDLLDWKYLGRYYMSARHMALAKAFPDHFTYEPHEVDATQGYRYPRPASVPPSPSLSRHSSPHQSEDEEEPRDGPLGEDSERYDEEEEAAKDRRNIRAPEWPRRASCSSSTGGSKRSNSVDTGPSSSLSTPTEPLSPTSSLGEERN
As for B1, the binding entry is listed as “binds”.
